No constants are given. Whether binding was seen depends on the method and setting. In cells and extracts the contact can be indirect. A yes stands for co-enrichment or nearness to the bait. Other partners may have been found. For part of these data: Sequences can lack the tags named with a protein.
T1: HA-Melg3 (meiotic nuclear elongation 3) (Tetrahymena thermophila)
T1 sequence: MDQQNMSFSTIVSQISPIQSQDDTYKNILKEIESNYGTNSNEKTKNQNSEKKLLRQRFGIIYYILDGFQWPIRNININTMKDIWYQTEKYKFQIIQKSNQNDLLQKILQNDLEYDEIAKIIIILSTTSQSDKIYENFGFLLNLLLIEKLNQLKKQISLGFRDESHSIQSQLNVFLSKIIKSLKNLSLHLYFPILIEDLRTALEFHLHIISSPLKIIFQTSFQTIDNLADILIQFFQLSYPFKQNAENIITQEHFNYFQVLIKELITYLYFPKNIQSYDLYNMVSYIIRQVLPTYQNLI

Chains of the proteins cited; added tags and fusions are not shown. Lines headed by an entry give the natural chain unless they say otherwise; changes in a name come on top.
UniProt I7MKG8: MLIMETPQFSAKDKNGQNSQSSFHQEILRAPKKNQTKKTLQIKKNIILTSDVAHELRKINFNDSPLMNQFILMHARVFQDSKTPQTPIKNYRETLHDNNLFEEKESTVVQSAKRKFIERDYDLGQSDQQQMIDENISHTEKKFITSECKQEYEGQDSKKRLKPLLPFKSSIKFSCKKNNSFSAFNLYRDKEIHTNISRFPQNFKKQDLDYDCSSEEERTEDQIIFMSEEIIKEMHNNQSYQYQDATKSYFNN
UniProt Q22CT9: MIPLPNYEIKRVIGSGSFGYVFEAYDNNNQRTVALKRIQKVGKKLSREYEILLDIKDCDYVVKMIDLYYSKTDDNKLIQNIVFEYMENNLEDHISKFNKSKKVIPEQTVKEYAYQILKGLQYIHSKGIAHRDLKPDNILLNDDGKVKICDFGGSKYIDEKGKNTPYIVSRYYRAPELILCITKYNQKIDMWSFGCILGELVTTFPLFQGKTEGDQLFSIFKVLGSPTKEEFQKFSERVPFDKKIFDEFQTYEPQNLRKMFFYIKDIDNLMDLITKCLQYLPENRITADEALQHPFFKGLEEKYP
UniProt I7M9G4: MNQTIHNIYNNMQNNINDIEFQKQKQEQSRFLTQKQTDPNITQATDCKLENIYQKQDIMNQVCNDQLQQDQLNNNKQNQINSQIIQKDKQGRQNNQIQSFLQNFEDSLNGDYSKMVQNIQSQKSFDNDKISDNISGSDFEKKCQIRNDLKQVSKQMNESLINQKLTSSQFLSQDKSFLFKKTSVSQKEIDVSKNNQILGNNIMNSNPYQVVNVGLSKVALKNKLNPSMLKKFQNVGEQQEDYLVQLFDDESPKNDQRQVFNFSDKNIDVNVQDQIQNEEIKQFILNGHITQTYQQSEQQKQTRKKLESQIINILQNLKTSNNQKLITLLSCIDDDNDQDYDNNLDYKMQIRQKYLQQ
UniProt Q22HC0: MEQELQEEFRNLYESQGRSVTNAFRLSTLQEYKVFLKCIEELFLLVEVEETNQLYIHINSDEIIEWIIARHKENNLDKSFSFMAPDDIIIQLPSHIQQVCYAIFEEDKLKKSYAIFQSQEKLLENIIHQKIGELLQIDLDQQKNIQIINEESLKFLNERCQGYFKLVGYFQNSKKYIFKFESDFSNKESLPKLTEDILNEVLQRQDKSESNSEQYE
UniProt O76506: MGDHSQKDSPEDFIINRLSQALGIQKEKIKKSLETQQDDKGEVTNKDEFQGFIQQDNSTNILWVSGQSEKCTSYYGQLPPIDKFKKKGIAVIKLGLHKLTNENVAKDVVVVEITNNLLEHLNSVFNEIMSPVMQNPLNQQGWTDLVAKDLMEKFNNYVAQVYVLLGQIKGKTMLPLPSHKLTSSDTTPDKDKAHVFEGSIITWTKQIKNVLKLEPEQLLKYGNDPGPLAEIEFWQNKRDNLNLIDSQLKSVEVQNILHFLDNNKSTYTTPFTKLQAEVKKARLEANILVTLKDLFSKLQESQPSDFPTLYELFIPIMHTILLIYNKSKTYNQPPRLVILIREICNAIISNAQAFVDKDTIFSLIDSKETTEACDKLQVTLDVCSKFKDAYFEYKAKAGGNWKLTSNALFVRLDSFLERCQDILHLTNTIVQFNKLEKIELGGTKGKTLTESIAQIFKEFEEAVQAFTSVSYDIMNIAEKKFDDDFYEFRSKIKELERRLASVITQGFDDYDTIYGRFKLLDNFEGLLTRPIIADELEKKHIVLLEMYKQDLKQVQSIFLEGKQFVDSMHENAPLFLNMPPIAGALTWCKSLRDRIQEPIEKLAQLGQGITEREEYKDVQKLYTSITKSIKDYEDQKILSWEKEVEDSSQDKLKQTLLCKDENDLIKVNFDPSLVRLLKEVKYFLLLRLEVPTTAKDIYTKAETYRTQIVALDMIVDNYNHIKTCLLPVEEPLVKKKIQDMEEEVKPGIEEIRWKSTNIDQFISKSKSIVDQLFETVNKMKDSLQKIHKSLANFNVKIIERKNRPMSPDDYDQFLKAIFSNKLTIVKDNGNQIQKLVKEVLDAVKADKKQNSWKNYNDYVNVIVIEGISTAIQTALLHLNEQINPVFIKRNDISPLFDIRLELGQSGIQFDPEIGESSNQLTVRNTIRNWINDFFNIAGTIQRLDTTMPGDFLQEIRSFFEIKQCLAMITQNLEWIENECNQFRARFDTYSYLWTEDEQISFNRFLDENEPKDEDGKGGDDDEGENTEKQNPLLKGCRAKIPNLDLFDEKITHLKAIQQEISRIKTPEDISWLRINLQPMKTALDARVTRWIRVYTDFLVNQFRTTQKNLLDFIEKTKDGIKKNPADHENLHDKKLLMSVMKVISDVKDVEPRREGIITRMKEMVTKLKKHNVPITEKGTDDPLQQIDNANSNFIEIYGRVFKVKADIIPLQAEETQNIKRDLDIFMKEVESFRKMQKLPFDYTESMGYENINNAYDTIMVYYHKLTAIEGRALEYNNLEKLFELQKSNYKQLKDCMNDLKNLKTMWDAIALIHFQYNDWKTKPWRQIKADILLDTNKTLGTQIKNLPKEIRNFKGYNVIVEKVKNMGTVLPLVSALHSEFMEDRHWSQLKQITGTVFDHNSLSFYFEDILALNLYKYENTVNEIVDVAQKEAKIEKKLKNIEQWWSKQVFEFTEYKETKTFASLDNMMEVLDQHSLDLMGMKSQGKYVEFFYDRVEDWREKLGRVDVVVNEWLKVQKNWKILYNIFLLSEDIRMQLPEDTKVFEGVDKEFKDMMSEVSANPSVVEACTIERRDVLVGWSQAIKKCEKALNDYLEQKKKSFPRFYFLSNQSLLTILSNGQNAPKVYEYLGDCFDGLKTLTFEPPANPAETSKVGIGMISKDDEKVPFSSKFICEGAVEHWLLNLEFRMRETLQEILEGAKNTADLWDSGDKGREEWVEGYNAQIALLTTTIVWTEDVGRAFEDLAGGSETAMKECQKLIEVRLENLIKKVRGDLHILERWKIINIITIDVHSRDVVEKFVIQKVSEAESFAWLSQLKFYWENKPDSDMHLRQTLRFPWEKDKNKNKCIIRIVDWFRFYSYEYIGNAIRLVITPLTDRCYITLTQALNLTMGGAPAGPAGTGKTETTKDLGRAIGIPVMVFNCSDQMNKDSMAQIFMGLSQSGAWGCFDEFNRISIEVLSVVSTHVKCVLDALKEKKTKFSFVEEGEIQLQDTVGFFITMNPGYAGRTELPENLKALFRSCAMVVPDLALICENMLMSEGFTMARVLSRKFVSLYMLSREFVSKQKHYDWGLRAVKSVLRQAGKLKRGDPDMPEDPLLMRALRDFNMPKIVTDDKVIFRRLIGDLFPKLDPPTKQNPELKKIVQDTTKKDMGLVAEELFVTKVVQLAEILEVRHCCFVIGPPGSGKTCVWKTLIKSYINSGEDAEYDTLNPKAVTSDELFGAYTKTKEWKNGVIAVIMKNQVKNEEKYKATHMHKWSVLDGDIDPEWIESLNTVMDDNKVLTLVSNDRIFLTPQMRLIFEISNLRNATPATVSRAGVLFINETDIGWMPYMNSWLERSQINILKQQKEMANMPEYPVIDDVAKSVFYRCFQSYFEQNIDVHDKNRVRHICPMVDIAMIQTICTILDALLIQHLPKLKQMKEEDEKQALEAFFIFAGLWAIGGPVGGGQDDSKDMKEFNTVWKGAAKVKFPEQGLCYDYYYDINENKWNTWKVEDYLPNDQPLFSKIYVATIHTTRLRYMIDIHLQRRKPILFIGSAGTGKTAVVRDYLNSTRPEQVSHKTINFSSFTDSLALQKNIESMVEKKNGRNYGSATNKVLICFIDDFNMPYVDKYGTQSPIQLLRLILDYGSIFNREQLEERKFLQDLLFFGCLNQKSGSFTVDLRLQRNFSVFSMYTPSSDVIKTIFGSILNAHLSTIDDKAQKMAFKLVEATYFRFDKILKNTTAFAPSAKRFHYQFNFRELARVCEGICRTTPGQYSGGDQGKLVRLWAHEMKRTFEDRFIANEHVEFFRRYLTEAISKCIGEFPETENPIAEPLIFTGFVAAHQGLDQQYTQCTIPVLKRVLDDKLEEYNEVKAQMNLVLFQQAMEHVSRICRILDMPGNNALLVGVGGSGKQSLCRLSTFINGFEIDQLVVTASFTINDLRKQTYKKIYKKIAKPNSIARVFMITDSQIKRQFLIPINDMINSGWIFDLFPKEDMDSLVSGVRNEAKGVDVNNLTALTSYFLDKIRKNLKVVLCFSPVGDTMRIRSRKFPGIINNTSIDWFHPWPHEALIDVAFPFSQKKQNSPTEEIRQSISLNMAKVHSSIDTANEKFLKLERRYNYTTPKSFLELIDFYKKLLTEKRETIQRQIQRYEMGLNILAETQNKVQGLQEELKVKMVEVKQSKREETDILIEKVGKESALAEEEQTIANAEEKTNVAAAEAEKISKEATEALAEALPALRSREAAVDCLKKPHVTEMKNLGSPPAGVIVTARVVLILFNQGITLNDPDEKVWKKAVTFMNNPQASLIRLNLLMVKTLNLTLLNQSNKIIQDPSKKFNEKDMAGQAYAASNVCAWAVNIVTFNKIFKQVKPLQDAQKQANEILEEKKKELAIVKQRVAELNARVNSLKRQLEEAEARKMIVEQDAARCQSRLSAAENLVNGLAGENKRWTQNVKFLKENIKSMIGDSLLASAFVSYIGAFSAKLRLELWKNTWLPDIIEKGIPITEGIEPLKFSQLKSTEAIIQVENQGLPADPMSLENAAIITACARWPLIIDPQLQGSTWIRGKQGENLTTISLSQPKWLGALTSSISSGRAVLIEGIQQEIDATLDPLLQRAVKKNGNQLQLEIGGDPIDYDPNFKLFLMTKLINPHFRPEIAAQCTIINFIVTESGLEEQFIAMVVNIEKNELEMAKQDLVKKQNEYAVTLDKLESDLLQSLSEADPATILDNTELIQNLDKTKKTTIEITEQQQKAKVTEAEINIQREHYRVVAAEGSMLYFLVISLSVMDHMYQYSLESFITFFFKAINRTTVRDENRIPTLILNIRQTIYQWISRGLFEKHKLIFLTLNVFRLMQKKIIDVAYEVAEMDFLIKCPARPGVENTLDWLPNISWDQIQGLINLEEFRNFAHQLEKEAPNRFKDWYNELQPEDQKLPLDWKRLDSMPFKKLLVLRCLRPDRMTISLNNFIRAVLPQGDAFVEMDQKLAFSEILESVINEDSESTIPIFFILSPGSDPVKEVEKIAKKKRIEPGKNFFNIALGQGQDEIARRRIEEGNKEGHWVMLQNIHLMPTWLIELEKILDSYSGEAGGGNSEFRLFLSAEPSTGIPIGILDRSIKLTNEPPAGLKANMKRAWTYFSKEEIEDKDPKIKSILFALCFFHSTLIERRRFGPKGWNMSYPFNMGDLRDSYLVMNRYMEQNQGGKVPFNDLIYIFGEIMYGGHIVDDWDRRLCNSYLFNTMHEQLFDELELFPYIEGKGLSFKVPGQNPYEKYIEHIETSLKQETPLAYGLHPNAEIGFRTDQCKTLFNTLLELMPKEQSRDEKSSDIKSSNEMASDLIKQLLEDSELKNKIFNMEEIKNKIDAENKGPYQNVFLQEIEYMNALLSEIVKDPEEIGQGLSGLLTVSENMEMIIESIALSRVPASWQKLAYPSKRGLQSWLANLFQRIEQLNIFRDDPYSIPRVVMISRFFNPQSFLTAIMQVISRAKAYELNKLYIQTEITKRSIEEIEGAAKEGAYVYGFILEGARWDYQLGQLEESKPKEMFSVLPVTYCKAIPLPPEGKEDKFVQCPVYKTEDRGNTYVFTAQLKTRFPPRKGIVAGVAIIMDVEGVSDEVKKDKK


Target: Melg2-HA (meiotic nuclear elongation 2) (Tetrahymena thermophila) (UniProt I7MKG8)
Experiment: affinity purification with mass spectrometry; Melg2-HA as bait; soluble lysate of mating cells 3.5 h after meiotic induction in Tris lysis buffer (150 mM NaCl, 0.1% Triton X-100, pH 7.4); EZview red anti-HA affinity gel, 2 h, 4°C; hits by SAINTexpress, Bayesian FDR 0.05 or less

binding	Molecule
binds	glycogen synthase kinase 3 (Gsk3)-like protein (encoded by TTHERM_01016020) (from UniProt Q22CT9)

Target: T1, HA-Melg3 (meiotic nuclear elongation 3) (Tetrahymena thermophila)
Experiment: affinity purification with mass spectrometry; overexpressed HA-Melg3 or HA-Tass1 as bait; soluble lysate in Tris lysis buffer and benzonase extract of the insoluble pellet of mating cells 3.5 h after meiotic induction; EZview red anti-HA affinity gel, 2 h, 4°C; hits by SAINTexpress, Bayesian FDR 0.05 or less

Molecule	binding
Aip1	binds
Aip2	binds
TTHERM_00933110p (Tass1; Telomere-associated 1), endogenous (from UniProt I7M9G4)	binds
dynein Dyh15	binds

Next, values leading:

binding	Molecule
binds	TTHERM_00637830p (from UniProt Q22HC0)
binds	dynein Dyh4 (from UniProt O76506 1-4589)
binds	dynein Dyh5

Target: HA-Tass1 (Telomere-associated 1, TTHERM_00933110p) (Tetrahymena thermophila) (UniProt I7M9G4)
Experiment: as above

binding	Molecule
binds	Teb1 (the DNA-binding subunit of the telomerase holoenzyme) (protein, UniProt D2CVN6 1-701) MKLTKGGSYILKKVDRKQFYQDEEIVMQIKKILGQKTTDCKQYIKCECIDGLGDEALIYFEMLANQNQHLQKNDVIMIQDYLNDKTQNDKIVVLVTRFQFCKASHVQPKTAQKESIQLLNTEKTIIQKSKITKNPAEEVLKFIEVNEKDNSSNSEDMIIEQQKQEIKNNQKEKQSINGFNLEDSYSNISDITNFGGKSNFNIGSLSDQLSKQTLLISQLQVGKNRFSFKFEGRVVYKSSTFQNQQDSKYFFITAQDANNQEINLSFWQKVDQSYQTLKVGQYYYFIGGEVKQFKNNLELKFKFGDYQIIPKETLSANYVQPLALQPSKQFGNDSIGDSDYSIHNLIEKEESIAQKGYNGQKNNKYRQNNNNSKHTLLISEVLKTSKQYLSVLAQVVDIQSSDKNIRLKICDNSCNQELKVVIFPDLCYEWRDKFSINKWYYFNEFVRQIYNDEVQLKNNIHSSIKESDDQRKVITYNQEQGVFKKSISINSNDSFEIKPKISYKNNSNQEQRIYSSIEEIIQQAQASEIGQKKEFYVYGNLVSIQMKNKLYYYRCTCQGKSVLKYHGDSFFCESCQQFINPQVHLMLRAFVQDSTGTIPVMIFDQQSSQLINQIDPSIHVQEAGQYVKNCIENGQEEIIRQLFSKLDFARFIFEIQFENKEFNNEQEIAYKVLKIEKENIKEESKYLLKKLEHLINNNQNN
